Among the data in the supplement of paper PMC6331611 are normalized intracellular growth values, retold here.

The structures appear in SMILES notation. ± gives the standard deviation of the averaged measurements. Whole data set: some 1,600 compounds, median “normalized intracellular growth (luminescence, IQM-normalized) in RAW264.7 macrophages” near 1, cut for the lowest 2% near 0.43. The list shows a part of the results.

The test system of this test is Salmonella enterica serovar Typhimurium SL1344. Kind of test: normalized intracellular growth (luminescence, IQM-normalized) in RAW264.7 macrophages (fraction of plate interquartile mean); higher = more bacterial growth (less inhibition). The settings on record: 10 µM.

For the compound `OC[C@H]1O[C@@H](O[C@@H]2[C@@H](CO)OC(O)(CO)[C@H]2O)[C@H](O)[C@@H](O)[C@H]1O` (mixture of isomers), the normalized intracellular growth by setting is: (time point: T3 (3 h)) 0.999 ± 0.021; (time point: Tfinal (~6 h)) 0.958 ± 0.011.
On the same counts, the results for `N[C@@H](C(=O)N[C@@H]1C(=O)N2C(C(=O)O)=C(Cl)CS[C@H]12)c1ccccc1` are 1.03 ± 0.054 and 1.08 ± 0.021.
Regarding `COc1ccc(C(=O)NCc2ccc(OCCN(C)C)cc2)cc1OC`, the normalized intracellular growth reads like this: (time point: T3 (3 h)) 1.03 ± 0.047; (time point: Tfinal (~6 h)) 1.16 ± 0.094.
On the same counts, the results for `NC(N)=O` are 0.844 ± 0.083 and 0.891 ± 0.085.
On the same counts, the results for `Cn1c([N+](=O)[O-])cnc1COC(N)=O` are 1.1 ± 0.072 and 1.16 ± 0.34.
On the same counts, the results for `CN(C)[C@@H]1C(O)=C(C(N)=O)C(=O)[C@@]2(O)C(O)=C3C(=O)c4c(O)ccc(Cl)c4[C@@H](O)[C@H]3C[C@@H]12` are 0.727 ± 0.11 and 0.176 ± 0.0084.
With `O=S(=O)(O)CCS`, the normalized intracellular growth is 1.09 ± 0.031 (time point: T3 (3 h)) and 1.17 ± 0.14 (time point: Tfinal (~6 h)).
In the case of `CCn1cc(C(=O)O)c(=O)c2cnc(N3CCCC3)nc21`, the normalized intracellular growth amounted to 0.929 ± 0.0075 (time point: T3 (3 h)) and 1.04 ± 0.053 (time point: Tfinal (~6 h)).
On the same counts, the results for `CCCCCCCCCCCCC[N+](C)(C)Cc1ccccc1` are 1.07 ± 0.048 and 0.634 ± 0.26.
As for `CC(C)(C)NC[C@H](O)c1ccc(O)c(CO)c1`, the normalized intracellular growth is 0.963 ± 0.019 (time point: T3 (3 h)) and 1.1 ± 0.06 (time point: Tfinal (~6 h)).
On the same counts, the results for `CC(C)Nc1ncccn1` are 0.928 ± 0.053 and 1.05 ± 0.2.
Take `O=C(O)c1cc(-c2ccc(F)cc2F)ccc1O`: the normalized intracellular growth by setting is: (time point: T3 (3 h)) 1.04 ± 0.067; (time point: Tfinal (~6 h)) 1.04 ± 0.077.
On the same counts, the results for `CCCCNC(=O)NS(=O)(=O)c1ccc(C)cc1` are 1.05 ± 0.025 and 1.07 ± 0.042.
On the same counts, the results for `CCOC(=O)OC(C)OC1=C(C(=O)Nc2ccccn2)N(C)S(=O)(=O)c2ccccc21` (stereo unspecified) are 1.02 ± 0.014 and 1.09 ± 0.13.
On the same counts, the results for `CC(=O)[C@H]1CC[C@H]2[C@@H]3C[C@H](C)C4=CC(=O)CC[C@]4(C)[C@H]3[C@@H](O)C[C@]12C` are 0.767 ± 0.058 and 0.814 ± 0.2.
Take `CCN1CC(CCN2CCOCC2)C(c2ccccc2)(c2ccccc2)C1=O` (stereo unspecified): the normalized intracellular growth reads like this: (time point: T3 (3 h)) 0.939 ± 0.066; (time point: Tfinal (~6 h)) 1.04 ± 0.15.
On the same counts, the results for `CC(=O)OCC(=O)[C@@]12N=C(C)O[C@@H]1C[C@H]1[C@@H]3CCC4=CC(=O)C=C[C@]4(C)[C@H]3[C@@H](O)C[C@@]12C` are 0.991 ± 0.028 and 1.06 ± 0.041.
On the same counts, the results for `CC(=O)Nc1ccc(CC(=O)O)cc1` are 0.918 ± 0.05 and 1.19 ± 0.1.
On the same counts, the results for `Cc1nc2n(c(=O)c1CCN1CCC(c3noc4cc(F)ccc34)CC1)CCCC2` are 1.101 ± 0.0088 and 0.922 ± 0.051.
Turning to `CNCCC(Oc1ccc(C(F)(F)F)cc1)c1ccccc1` (stereo unspecified), the normalized intracellular growth (time point: T3 (3 h)) was determined as 0.851 ± 0.035 and the normalized intracellular growth (time point: Tfinal (~6 h)) came out at 0.896 ± 0.47.
On the same counts, the results for `CC[C@H]1OC(=O)[C@H](C)C(=O)[C@H](C)[C@@H](O[C@@H]2O[C@H](C)C[C@H](N(C)C)[C@H]2O)[C@](C)(OC)C[C@@H](C)C(=O)[C@H](C)[C@H]2N(CCCCn3cnc(-c4cccnc4)c3)C(=O)O[C@]12C` are 1.01 ± 0.086 and 0.0132 ± 0.0042.
With `CCCCOc1cc(C(=O)NCCN(CC)CC)c2ccccc2n1`, the normalized intracellular growth amounted to 1.08 ± 0.11 (time point: T3 (3 h)) and 0.969 ± 0.1 (time point: Tfinal (~6 h)).
On the same counts, the results for `O=C1CCc2cc(OCCCCc3nnnn3C3CCCCC3)ccc2N1` are 1.01 ± 0.024 and 0.905 ± 0.25.
On the same counts, the results for `N#C[C@@H]1C[C@@H]2C[C@@H]2N1C(=O)[C@@H](N)C12CC3CC(CC(O)(C3)C1)C2` are 1.02 ± 0.039 and 1.04 ± 0.049.
On the same counts, the results for `CCS(=O)(=O)CCn1c([N+](=O)[O-])cnc1C` are 0.977 ± 0.068 and 0.989 ± 0.033.
As for `CCC1=C(C)CN(C(=O)NCCc2ccc(S(=O)(=O)NC(=O)N[C@H]3CC[C@H](C)CC3)cc2)C1=O`, the normalized intracellular growth by setting is: (time point: T3 (3 h)) 1.03 ± 0.028; (time point: Tfinal (~6 h)) 1.1 ± 0.095.
`CC1(C)NC(=O)N(c2ccc([N+](=O)[O-])c(C(F)(F)F)c2)C1=O`: the normalized intracellular growth reads like this: (time point: T3 (3 h)) 1.03 ± 0.022; (time point: Tfinal (~6 h)) 1.07 ± 0.062.
`CCCCCCc1ccc(O)cc1O`: the normalized intracellular growth turned out to be 1 ± 0.054 (time point: T3 (3 h)) and 0.982 ± 0.036 (time point: Tfinal (~6 h)).
On the same counts, the results for `COC(=O)[C@@H]1[C@H]2C[C@H]3c4[nH]c5ccccc5c4CCN3C[C@@H]2CC[C@@H]1O` are 0.992 ± 0.016 and 1.02 ± 0.094.
`C[C@]12C=CC(=O)C=C1CC[C@@H]1[C@@H]2[C@@H](O)C[C@@]2(C)[C@H]1CC[C@]2(O)C(=O)COC(=O)CCC(=O)O` had a normalized intracellular growth (time point: T3 (3 h)) of 1.02 ± 0.016 and a normalized intracellular growth (time point: Tfinal (~6 h)) of 0.815 ± 0.11.
On the same counts, the results for `CC(=O)N[C@@H]([C@@H](O)[C@H](O)[C@H](O)CO)[C@@H](O)CC(=O)C(=O)O` are 1.02 ± 0.058 and 1.06 ± 0.24.
On the same counts, the results for `CCOC(=O)C1=C[C@]2(CC)CCCN3CCc4c(n1c1ccccc41)[C@@H]32` are 0.954 ± 0.034 and 0.798 ± 0.22.
On to `Cc1cccc(CN2CCN(C(c3ccccc3)c3ccc(Cl)cc3)CC2)c1` (stereo unspecified), for which the normalized intracellular growth turned out to be 0.974 ± 0.041 (time point: T3 (3 h)) and 1.14 ± 0.051 (time point: Tfinal (~6 h)).
On the same counts, the results for `COc1cnc(NS(=O)(=O)c2ccc(N)cc2)nc1` are 1.02 ± 0.023 and 0.905 ± 0.033.
On the same counts, the results for `O=C(O)CCC(=O)Nc1ccc(S(=O)(=O)Nc2nccs2)cc1` are 0.989 ± 0.021 and 0.977 ± 0.034.
On the same counts, the results for `O=NN(CCCl)C(=O)NC1CCCCC1` are 0.928 ± 0.067 and 0.934 ± 0.068.
On to `COc1ccccc1O`, for which the normalized intracellular growth reads like this: (time point: T3 (3 h)) 1.07 ± 0.064; (time point: Tfinal (~6 h)) 0.977 ± 0.096.
On the same counts, the results for `CC(=O)OCC1=C(C(=O)O)N2C(=O)[C@@H](NC(=O)CSc3ccncc3)[C@H]2SC1` are 1 ± 0.024 and 0.957 ± 0.042.
On the same counts, the results for `CN(C)[C@@H]1C(O)=C(C(N)=O)C(=O)[C@@]2(O)C(O)=C3C(=O)c4c(O)ccc(Cl)c4[C@@](C)(O)[C@H]3C[C@@H]12` are 0.846 ± 0.031 and 0.23 ± 0.02.
With `O=C1OC2(c3ccc(O)cc3Oc3cc(O)ccc32)c2ccccc21`, the normalized intracellular growth is 1.02 ± 0.069 (time point: T3 (3 h)) and 0.891 ± 0.079 (time point: Tfinal (~6 h)).
With `CC(C)[C@H](NC(=O)[C@H](CC(=O)O)NC(=O)[C@H](CCCCN)NC(=O)[C@@H](N)CCCN=C(N)N)C(=O)N[C@@H](Cc1ccc(O)cc1)C(=O)O`, the normalized intracellular growth runs as follows: (time point: T3 (3 h)) 0.935 ± 0.077; (time point: Tfinal (~6 h)) 0.955 ± 0.14.
Regarding `C[C@]12CC[C@@H]3c4ccc(O)cc4CC[C@H]3[C@@H]1CCC2=O`, the normalized intracellular growth reads like this: (time point: T3 (3 h)) 1.17 ± 0.19; (time point: Tfinal (~6 h)) 1.06 ± 0.14.
Take `CC1(C)[C@H]2CC[C@]1(CS(=O)(=O)O)C(=O)C2=Cc1ccc(C=C2C(=O)[C@@]3(CS(=O)(=O)O)CC[C@@H]2C3(C)C)cc1`: the normalized intracellular growth is, setting by setting: (time point: T3 (3 h)) 0.978 ± 0.028; (time point: Tfinal (~6 h)) 1.17 ± 0.22.
